The list shows a part of the results. Hit calls seldom repeat between salt and free forms of one compound.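 In K562 cells expressing nanoluciferase-fused kinases, luminescence was recorded at 4 h intervals between 2 and 18 h, normalized as percent of control with DMSO at 100% and a positive control at 0%. A significant (2 sigma) signal drop marks a time point as decreased. The authors' rule for a hit is not shown and takes in more than the number of time points.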
Assays:
Assay in all cases: kinase-Nluc reporter destabilization hit call (1 = scored as downregulated) (binary); higher = compound decreases kinase abundance
Conditions in all cases: K562, 2-18 h
PDPK1 = PDPK1 (UniProt O15530)
PIK4CA = PIK4CA (UniProt P42356)
PIK4CB = PIK4CB (UniProt Q9UBF8)
PRKAA1 = PRKAA1 (UniProt Q13131)
PRKCA = PRKCA (UniProt P17252)
PTK2B = PTK2B (UniProt Q14289)
RAF1 = RAF1 (UniProt P04049)
[1] = biological target: RAF1_S257L (clone: RAF1_mut) (UniProt P04049)
RET = RET (UniProt P07949)
[2] = biological target: RET_M918T (clone: RET_mut) (UniProt P07949)
RIOK1 = RIOK1 (UniProt Q9BRS2)
RIPK1 = RIPK1 (UniProt Q13546)
RIPK2 = RIPK2 (UniProt O43353)
ROR2 = ROR2 (UniProt Q01974)
RPS6KA1 = RPS6KA1 (UniProt Q15418)
SPHK1 = SPHK1 (UniProt Q9NYA1)
SRC = SRC (UniProt P12931)
STK24 = STK24 (UniProt Q9Y6E0)
PLK1 = PLK1 (UniProt P53350)
PTK2 = PTK2 (UniProt Q05397)

Chains of the proteins cited; added tags and fusions are not shown. Lines headed by an entry give the natural chain unless they say otherwise; changes in a name come on top.
UniProt O15530: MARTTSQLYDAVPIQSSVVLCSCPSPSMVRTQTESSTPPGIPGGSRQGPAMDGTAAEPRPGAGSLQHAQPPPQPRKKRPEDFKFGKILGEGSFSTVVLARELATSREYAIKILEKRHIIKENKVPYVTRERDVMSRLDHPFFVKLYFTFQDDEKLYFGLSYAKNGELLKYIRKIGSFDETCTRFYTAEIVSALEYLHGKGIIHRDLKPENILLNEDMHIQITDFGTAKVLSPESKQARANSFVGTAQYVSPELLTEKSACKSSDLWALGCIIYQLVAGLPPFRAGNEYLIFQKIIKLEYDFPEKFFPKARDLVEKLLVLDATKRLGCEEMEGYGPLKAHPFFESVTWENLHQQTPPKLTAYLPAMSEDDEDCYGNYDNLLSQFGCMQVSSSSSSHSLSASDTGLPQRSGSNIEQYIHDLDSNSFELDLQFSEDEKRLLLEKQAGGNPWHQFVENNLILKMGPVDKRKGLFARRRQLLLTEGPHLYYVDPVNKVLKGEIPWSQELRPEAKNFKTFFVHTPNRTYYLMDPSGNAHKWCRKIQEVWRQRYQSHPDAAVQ
UniProt P42356, whole entry, looked up: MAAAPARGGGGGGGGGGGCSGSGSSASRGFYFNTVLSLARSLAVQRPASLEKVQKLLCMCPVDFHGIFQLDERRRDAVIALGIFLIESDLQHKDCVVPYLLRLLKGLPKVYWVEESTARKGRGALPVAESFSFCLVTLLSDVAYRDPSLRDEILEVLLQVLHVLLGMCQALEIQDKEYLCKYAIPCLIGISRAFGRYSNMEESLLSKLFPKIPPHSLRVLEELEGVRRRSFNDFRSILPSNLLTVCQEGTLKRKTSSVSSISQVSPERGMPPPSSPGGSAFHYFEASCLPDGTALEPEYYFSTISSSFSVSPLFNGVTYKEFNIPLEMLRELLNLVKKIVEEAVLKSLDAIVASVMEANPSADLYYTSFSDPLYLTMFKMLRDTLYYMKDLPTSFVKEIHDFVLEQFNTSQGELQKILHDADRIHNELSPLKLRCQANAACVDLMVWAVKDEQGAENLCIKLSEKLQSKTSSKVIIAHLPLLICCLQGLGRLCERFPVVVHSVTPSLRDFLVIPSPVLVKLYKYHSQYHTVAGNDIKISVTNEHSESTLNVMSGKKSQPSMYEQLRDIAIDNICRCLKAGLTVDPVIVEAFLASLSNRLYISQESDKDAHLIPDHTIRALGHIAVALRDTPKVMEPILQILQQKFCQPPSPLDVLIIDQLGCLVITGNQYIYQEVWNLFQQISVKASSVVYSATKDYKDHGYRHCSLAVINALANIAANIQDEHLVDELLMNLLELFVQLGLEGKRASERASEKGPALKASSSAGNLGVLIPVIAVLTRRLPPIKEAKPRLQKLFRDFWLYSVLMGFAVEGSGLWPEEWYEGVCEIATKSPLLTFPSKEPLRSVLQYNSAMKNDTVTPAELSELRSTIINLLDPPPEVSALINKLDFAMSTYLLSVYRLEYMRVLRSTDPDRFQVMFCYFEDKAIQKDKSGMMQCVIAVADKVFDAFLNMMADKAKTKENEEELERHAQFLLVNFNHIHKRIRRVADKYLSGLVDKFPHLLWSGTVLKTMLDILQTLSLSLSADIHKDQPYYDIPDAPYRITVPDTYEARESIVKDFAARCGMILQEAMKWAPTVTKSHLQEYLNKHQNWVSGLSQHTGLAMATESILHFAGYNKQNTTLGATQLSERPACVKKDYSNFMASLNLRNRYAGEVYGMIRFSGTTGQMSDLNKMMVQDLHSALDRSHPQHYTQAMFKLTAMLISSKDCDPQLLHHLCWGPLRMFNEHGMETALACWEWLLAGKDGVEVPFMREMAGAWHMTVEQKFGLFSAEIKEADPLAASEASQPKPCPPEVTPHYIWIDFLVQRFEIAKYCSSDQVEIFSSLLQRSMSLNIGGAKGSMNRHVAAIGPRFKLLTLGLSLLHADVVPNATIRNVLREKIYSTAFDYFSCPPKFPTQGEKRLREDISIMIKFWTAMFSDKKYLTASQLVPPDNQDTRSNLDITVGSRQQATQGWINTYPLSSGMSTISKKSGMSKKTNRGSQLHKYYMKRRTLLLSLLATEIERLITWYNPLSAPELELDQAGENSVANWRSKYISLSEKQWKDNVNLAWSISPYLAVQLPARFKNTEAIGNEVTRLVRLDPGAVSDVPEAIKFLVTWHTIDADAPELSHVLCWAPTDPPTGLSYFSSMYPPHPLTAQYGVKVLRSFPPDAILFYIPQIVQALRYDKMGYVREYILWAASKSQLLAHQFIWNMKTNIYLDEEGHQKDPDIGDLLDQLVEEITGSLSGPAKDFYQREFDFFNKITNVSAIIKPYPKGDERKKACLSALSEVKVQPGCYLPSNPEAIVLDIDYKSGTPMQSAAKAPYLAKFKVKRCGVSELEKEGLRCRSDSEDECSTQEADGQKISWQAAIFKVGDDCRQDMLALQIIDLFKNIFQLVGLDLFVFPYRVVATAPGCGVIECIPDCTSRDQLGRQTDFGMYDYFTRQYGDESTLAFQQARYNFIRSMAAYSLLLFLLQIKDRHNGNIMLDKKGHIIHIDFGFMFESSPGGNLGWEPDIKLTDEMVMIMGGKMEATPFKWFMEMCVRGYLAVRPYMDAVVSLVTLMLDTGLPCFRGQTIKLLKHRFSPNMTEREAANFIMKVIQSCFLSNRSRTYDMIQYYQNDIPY
UniProt Q14289, whole entry, looked up: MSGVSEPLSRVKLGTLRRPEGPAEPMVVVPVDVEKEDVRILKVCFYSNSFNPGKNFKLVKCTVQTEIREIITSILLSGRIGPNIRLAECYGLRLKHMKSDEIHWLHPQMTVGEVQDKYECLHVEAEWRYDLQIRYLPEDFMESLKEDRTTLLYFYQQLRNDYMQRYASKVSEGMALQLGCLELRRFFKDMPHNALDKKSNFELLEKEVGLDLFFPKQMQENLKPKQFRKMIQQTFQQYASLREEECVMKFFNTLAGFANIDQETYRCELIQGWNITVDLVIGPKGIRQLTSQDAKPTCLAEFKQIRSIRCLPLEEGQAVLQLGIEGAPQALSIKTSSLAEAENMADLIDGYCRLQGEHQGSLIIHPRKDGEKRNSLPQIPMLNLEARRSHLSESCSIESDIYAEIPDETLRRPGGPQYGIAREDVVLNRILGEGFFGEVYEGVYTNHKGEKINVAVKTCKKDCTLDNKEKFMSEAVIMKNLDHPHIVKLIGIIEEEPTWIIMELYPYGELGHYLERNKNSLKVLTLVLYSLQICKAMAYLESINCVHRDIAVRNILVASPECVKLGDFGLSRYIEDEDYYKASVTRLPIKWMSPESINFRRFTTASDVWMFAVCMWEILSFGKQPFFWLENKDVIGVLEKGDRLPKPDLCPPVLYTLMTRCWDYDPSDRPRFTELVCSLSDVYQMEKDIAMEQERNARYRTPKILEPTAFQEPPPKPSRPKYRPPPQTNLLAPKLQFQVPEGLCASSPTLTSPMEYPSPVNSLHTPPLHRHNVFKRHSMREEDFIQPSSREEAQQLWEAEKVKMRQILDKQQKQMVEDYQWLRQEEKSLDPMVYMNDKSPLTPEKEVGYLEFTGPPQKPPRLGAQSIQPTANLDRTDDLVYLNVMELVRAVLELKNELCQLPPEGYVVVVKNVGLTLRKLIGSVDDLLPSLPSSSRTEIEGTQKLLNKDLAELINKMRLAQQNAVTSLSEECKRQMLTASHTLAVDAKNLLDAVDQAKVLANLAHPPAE
UniProt P07949, whole entry, looked up: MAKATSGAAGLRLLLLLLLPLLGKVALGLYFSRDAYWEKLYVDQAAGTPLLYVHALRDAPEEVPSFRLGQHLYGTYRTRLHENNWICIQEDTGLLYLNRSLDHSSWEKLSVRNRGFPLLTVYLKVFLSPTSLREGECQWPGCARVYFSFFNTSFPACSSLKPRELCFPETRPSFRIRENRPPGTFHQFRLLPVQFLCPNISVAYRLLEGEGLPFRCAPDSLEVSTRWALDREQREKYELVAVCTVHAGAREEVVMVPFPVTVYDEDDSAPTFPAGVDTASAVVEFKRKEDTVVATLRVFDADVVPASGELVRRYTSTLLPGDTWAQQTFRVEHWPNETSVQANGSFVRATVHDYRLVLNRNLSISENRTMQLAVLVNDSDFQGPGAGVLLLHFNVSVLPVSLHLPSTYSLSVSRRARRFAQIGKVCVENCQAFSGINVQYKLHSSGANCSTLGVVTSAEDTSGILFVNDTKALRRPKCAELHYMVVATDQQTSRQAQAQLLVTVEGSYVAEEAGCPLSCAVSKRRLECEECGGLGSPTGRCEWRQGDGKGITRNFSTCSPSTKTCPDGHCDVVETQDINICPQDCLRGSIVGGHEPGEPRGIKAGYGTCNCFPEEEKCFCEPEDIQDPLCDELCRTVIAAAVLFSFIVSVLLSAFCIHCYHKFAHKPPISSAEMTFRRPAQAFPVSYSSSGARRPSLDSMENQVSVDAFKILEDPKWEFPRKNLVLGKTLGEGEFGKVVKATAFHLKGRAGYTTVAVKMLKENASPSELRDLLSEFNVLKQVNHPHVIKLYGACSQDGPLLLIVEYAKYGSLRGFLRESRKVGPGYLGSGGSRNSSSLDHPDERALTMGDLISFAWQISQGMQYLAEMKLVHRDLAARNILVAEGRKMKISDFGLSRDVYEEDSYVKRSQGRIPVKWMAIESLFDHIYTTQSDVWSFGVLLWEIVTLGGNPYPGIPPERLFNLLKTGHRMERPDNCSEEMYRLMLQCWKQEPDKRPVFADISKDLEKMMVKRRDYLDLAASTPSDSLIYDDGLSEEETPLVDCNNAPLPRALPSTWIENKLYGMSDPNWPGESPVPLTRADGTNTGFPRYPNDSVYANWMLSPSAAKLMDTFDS
UniProt Q9BRS2: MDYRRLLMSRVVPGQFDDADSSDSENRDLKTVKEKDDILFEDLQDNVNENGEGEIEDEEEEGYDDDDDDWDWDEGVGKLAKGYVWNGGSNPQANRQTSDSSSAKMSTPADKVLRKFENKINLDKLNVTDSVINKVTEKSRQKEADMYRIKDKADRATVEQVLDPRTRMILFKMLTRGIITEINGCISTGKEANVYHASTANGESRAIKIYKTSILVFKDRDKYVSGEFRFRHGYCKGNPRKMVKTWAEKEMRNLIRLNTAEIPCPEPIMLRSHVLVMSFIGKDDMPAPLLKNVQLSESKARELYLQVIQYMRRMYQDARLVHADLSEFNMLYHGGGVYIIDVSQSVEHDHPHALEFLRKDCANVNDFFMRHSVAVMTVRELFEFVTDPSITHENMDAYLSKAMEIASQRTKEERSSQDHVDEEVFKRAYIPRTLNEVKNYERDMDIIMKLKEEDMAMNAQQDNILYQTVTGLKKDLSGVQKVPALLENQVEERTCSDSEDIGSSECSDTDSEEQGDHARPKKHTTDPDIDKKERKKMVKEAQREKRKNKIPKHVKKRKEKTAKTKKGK
UniProt Q15418, whole entry: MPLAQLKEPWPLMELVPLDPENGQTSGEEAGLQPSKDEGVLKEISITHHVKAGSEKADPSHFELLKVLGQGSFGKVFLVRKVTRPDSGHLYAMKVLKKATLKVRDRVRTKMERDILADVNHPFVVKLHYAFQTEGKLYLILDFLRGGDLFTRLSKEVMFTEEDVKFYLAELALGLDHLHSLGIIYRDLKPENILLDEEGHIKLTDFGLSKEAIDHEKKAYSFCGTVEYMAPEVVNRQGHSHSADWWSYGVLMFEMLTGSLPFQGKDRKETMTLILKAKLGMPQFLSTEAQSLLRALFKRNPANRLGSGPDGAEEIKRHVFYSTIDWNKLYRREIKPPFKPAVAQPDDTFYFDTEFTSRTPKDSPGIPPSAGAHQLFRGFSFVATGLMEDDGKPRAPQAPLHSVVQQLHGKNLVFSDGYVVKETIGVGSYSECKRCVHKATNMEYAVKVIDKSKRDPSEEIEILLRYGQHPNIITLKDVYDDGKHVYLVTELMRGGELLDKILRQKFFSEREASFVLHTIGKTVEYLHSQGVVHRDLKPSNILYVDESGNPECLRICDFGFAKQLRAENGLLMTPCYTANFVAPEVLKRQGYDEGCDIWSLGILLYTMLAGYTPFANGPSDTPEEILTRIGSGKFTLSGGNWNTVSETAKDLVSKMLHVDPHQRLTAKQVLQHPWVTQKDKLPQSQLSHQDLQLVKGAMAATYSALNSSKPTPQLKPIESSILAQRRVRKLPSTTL
UniProt Q9Y6E0: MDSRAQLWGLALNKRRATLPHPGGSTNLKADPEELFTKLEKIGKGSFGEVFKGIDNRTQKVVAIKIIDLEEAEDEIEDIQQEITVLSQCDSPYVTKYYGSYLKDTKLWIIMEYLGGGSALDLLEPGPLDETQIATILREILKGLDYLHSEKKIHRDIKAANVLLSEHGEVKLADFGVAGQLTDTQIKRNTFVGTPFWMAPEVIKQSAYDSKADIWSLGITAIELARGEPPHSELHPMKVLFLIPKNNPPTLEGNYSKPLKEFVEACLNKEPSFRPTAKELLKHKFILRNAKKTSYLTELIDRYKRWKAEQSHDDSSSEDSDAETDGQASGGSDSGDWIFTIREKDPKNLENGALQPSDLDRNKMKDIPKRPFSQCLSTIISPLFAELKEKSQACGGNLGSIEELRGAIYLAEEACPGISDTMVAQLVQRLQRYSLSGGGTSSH

Measured: kinase-Nluc reporter destabilization hit call

O=S(=O)(c1cccc2c(O)nccc12)N1CCCNCC1 [Hydroxyfasudil]
inactive: PDPK1; 10 µM 0 | PIK4CA; 10 µM 0 | PIK4CB; 10 µM 0 | PRKAA1; 10 µM 0 | PRKCA; 10 µM 0 | PTK2B; 10 µM 0 | RAF1; 10 µM 0 | [1]; 10 µM 0 | RET; 10 µM 0 | [2]; 10 µM 0 | RIOK1; 10 µM 0 | RIPK1; 10 µM 0 | RIPK2; 10 µM 0 | ROR2; 10 µM 0 | RPS6KA1; 10 µM 0 | SPHK1; 10 µM 0 | SRC; 10 µM 0 | STK24; 10 µM 0

Cc1[nH]c(/C=C2\C(=O)Nc3ccc(F)cc32)c(C)c1C(=O)NC[C@H](O)CN1CCOCC1
inactive: PDPK1; 2.5 µM 0 | PIK4CA; 2.5 µM 0 | PIK4CB; 2.5 µM 0 | PLK1; 2.5 µM 0 | PRKAA1; 2.5 µM 0 | PRKCA; 2.5 µM 0 | PTK2; 2.5 µM 0 | RAF1; 2.5 µM 0 | [1]; 2.5 µM 0 | RET; 2.5 µM 0 | [2]; 2.5 µM 0 | RIOK1; 2.5 µM 0 | RIPK1; 2.5 µM 0 | RIPK2; 2.5 µM 0 | ROR2; 2.5 µM 0 | SPHK1; 2.5 µM 0 | SRC; 2.5 µM 0 | STK24; 2.5 µM 0

O=C(NCCCNc1nc(Nc2cccc(CN3CCOCC3)c2)ncc1C1CC1)C1CCC1
inactive: PDPK1; 10 µM 0 | PIK4CA; 10 µM 0 | PIK4CB; 10 µM 0 | PLK1; 10 µM 0 | PRKCA; 10 µM 0 | PTK2; 10 µM 0 | PTK2B; 10 µM 0 | RAF1; 10 µM 0 | [1]; 10 µM 0 | RET; 10 µM 0 | [2]; 10 µM 0 | RIOK1; 10 µM 0 | RIPK1; 10 µM 0 | RIPK2; 10 µM 0 | ROR2; 10 µM 0 | RPS6KA1; 10 µM 0 | SPHK1; 10 µM 0 | SRC; 10 µM 0 | STK24; 10 µM 0

Nc1ncnc2n[nH]c(-c3ccc(Oc4ccccc4)cc3)c12 [Ibrutinib deacryloylpiperidine]
inactive: PDPK1; 10 µM 0 | PIK4CA; 10 µM 0 | PIK4CB; 10 µM 0 | PLK1; 10 µM 0 | PRKAA1; 10 µM 0 | PRKCA; 10 µM 0 | PTK2; 10 µM 0 | PTK2B; 10 µM 0 | RAF1; 10 µM 0 | [1]; 10 µM 0 | RET; 10 µM 0 | [2]; 10 µM 0 | RIOK1; 10 µM 0 | RIPK1; 10 µM 0 | RIPK2; 10 µM 0 | ROR2; 10 µM 0 | RPS6KA1; 10 µM 0 | SPHK1; 10 µM 0 | STK24; 10 µM 0

COc1ccc(-c2c[nH]c3nccc(-c4ccsc4)c23)c(OC)c1
inactive: PDPK1; 10 µM 0 | PIK4CA; 10 µM 0 | PIK4CB; 10 µM 0 | PLK1; 10 µM 0 | PRKCA; 10 µM 0 | PTK2; 10 µM 0 | PTK2B; 10 µM 0 | RAF1; 10 µM 0 | [1]; 10 µM 0 | RET; 10 µM 0 | [2]; 10 µM 0 | RIOK1; 10 µM 0 | RIPK1; 10 µM 0 | RIPK2; 10 µM 0 | ROR2; 10 µM 0 | RPS6KA1; 10 µM 0 | SPHK1; 10 µM 0 | SRC; 10 µM 0 | STK24; 10 µM 0

COc1cc2ncnc(Nc3ccc(F)c(Cl)c3)c2cc1OCCCN1CCOCC1 [Gefitinib]
inactive: PDPK1; 10 µM 0 | PIK4CA; 10 µM 0 | PIK4CB; 10 µM 0 | PLK1; 10 µM 0 | PRKAA1; 10 µM 0 | PRKCA; 10 µM 0 | PTK2; 10 µM 0 | PTK2B; 10 µM 0 | RAF1; 10 µM 0 | [1]; 10 µM 0 | [2]; 10 µM 0 | RIOK1; 10 µM 0 | RIPK1; 10 µM 0 | ROR2; 10 µM 0 | RPS6KA1; 10 µM 0 | SPHK1; 10 µM 0 | STK24; 10 µM 0

Cc1ccc(-n2nc(C(C)(C)C)cc2NC(=O)Nc2ccc(OCCN3CCOCC3)c3ccccc23)cc1 [Doramapimod]
inactive: PDPK1; 10 µM 0 | PIK4CA; 10 µM 0 | PIK4CB; 10 µM 0 | PLK1; 10 µM 0 | PRKAA1; 10 µM 0 | PRKCA; 10 µM 0 | RAF1; 10 µM 0 | [1]; 10 µM 0 | RET; 10 µM 0 | [2]; 10 µM 0 | RIOK1; 10 µM 0 | RIPK1; 10 µM 0 | RIPK2; 10 µM 0 | ROR2; 10 µM 0 | RPS6KA1; 10 µM 0 | SPHK1; 10 µM 0 | SRC; 10 µM 0 | STK24; 10 µM 0

Cc1nc(Nc2ncc(C(=O)Nc3c(C)cccc3Cl)s2)cc(N2CCN(CCO)CC2)n1 [Dasatinib]
inactive: PDPK1; 2.5 µM 0 | PIK4CA; 2.5 µM 0 | PIK4CB; 2.5 µM 0 | PLK1; 2.5 µM 0 | PRKAA1; 2.5 µM 0 | PRKCA; 2.5 µM 0 | PTK2; 2.5 µM 0 | PTK2B; 2.5 µM 0 | RAF1; 2.5 µM 0 | [1]; 2.5 µM 0 | RET; 2.5 µM 0 | [2]; 2.5 µM 0 | RIOK1; 2.5 µM 0 | RIPK1; 2.5 µM 0 | RIPK2; 2.5 µM 0 | ROR2; 2.5 µM 0 | RPS6KA1; 2.5 µM 0 | SPHK1; 2.5 µM 0 | STK24; 2.5 µM 0

COc1ccc(CNC(=O)Nc2ncc([N+](=O)[O-])s2)cc1
inactive: PDPK1; 2.5 µM 0 | PIK4CA; 2.5 µM 0 | PIK4CB; 2.5 µM 0 | PLK1; 2.5 µM 0 | PRKAA1; 2.5 µM 0 | PRKCA; 2.5 µM 0 | PTK2; 2.5 µM 0 | PTK2B; 2.5 µM 0 | RAF1; 2.5 µM 0 | [1]; 2.5 µM 0 | RET; 2.5 µM 0 | [2]; 2.5 µM 0 | RIOK1; 2.5 µM 0 | RIPK1; 2.5 µM 0 | RIPK2; 2.5 µM 0 | ROR2; 2.5 µM 0 | RPS6KA1; 2.5 µM 0 | SPHK1; 2.5 µM 0 | SRC; 2.5 µM 0 | STK24; 2.5 µM 0

CN1CCN(c2ccc3nc(-c4c(N)c5c(F)cccc5[nH]c4=O)[nH]c3c2)CC1 [Dovitinib]
inactive: PDPK1; 2.5 µM 0 | PIK4CA; 2.5 µM 0 | PIK4CB; 2.5 µM 0 | PLK1; 2.5 µM 0 | PRKAA1; 2.5 µM 0 | PRKCA; 2.5 µM 0 | PTK2B; 2.5 µM 0 | RAF1; 2.5 µM 0 | [1]; 2.5 µM 0 | RIOK1; 2.5 µM 0 | RIPK1; 2.5 µM 0 | RIPK2; 2.5 µM 0 | ROR2; 2.5 µM 0 | RPS6KA1; 2.5 µM 0 | SPHK1; 2.5 µM 0 | SRC; 2.5 µM 0 | STK24; 2.5 µM 0

— the supplement of paper PMC12823440, “Inhibitors supercharge kinase turnover through native proteolytic circuits” (Nature, 2025)
